Drawing on paper PMC2890414, this text covers binding for three molecules.

Sequences of proteins named here, by UniProt entry; tags and fusion partners are left off. A change or cut given only in a name is not applied to a line headed by its entry.
UniProt P21333: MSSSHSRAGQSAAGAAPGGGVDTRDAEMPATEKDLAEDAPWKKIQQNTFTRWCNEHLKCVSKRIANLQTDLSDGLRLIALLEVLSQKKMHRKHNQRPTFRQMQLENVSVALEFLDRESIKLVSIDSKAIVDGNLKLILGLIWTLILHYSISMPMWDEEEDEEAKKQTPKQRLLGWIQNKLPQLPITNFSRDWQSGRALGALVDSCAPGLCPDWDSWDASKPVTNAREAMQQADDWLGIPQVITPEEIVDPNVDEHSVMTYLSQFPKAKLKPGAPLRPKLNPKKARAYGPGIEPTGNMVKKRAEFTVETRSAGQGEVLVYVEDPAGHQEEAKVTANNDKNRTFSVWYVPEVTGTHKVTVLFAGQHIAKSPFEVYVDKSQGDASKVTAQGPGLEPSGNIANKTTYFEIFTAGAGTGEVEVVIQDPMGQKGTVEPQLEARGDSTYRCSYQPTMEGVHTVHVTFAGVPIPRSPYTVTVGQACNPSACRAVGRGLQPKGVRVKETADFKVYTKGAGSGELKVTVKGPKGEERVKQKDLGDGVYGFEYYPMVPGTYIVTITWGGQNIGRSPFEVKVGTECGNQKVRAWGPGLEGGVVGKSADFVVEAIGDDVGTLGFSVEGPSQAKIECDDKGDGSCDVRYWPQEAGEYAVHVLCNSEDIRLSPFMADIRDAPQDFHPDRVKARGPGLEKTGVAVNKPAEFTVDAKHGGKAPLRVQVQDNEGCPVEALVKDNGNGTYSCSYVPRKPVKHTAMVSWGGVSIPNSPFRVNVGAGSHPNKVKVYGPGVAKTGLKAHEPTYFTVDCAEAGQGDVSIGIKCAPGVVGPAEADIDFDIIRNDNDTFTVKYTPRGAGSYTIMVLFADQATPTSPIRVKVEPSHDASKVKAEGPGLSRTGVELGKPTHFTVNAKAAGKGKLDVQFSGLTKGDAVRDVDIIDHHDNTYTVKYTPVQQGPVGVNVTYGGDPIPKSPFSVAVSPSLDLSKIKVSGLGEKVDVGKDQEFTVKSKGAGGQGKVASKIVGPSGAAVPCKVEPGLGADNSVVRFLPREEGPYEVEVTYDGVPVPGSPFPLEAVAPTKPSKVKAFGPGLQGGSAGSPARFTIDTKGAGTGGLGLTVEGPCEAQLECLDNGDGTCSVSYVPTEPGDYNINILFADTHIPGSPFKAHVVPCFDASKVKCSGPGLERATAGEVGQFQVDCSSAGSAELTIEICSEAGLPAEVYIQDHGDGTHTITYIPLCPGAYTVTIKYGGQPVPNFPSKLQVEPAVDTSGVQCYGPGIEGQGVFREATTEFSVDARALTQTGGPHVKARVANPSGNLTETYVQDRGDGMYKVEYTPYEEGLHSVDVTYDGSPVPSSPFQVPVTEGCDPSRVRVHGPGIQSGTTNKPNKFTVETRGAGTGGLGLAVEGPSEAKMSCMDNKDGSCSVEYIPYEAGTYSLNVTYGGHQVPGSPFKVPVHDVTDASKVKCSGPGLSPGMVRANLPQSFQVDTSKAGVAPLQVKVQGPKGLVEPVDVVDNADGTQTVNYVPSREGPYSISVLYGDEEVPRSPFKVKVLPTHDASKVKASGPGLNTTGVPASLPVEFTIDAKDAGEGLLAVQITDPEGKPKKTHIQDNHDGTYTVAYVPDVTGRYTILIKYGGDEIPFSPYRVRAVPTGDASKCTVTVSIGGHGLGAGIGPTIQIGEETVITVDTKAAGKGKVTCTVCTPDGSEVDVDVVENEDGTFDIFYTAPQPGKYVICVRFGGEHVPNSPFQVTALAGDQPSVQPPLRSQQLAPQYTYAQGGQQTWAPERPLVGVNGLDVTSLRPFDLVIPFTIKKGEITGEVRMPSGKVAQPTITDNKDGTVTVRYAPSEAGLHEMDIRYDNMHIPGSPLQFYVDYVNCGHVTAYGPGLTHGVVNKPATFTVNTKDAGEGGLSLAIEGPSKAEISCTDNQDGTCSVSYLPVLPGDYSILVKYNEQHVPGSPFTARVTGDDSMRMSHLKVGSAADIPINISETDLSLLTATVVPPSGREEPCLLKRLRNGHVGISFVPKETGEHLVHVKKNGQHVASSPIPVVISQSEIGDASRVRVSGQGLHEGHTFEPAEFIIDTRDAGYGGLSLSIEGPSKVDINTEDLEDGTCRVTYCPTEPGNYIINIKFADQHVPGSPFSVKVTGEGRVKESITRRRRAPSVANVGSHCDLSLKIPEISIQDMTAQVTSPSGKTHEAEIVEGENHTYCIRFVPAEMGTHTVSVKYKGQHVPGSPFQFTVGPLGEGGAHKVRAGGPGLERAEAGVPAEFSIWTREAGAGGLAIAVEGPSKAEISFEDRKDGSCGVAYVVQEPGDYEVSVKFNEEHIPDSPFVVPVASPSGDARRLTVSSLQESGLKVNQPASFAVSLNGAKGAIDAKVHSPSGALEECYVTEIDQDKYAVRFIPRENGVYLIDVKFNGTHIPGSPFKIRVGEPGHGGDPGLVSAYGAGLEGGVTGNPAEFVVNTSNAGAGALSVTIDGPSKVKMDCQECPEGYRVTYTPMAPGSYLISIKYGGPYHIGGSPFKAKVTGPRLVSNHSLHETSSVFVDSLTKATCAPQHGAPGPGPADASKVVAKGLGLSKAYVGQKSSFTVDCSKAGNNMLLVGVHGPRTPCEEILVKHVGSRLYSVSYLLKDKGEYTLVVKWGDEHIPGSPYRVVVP
UniProt Q8BTM8: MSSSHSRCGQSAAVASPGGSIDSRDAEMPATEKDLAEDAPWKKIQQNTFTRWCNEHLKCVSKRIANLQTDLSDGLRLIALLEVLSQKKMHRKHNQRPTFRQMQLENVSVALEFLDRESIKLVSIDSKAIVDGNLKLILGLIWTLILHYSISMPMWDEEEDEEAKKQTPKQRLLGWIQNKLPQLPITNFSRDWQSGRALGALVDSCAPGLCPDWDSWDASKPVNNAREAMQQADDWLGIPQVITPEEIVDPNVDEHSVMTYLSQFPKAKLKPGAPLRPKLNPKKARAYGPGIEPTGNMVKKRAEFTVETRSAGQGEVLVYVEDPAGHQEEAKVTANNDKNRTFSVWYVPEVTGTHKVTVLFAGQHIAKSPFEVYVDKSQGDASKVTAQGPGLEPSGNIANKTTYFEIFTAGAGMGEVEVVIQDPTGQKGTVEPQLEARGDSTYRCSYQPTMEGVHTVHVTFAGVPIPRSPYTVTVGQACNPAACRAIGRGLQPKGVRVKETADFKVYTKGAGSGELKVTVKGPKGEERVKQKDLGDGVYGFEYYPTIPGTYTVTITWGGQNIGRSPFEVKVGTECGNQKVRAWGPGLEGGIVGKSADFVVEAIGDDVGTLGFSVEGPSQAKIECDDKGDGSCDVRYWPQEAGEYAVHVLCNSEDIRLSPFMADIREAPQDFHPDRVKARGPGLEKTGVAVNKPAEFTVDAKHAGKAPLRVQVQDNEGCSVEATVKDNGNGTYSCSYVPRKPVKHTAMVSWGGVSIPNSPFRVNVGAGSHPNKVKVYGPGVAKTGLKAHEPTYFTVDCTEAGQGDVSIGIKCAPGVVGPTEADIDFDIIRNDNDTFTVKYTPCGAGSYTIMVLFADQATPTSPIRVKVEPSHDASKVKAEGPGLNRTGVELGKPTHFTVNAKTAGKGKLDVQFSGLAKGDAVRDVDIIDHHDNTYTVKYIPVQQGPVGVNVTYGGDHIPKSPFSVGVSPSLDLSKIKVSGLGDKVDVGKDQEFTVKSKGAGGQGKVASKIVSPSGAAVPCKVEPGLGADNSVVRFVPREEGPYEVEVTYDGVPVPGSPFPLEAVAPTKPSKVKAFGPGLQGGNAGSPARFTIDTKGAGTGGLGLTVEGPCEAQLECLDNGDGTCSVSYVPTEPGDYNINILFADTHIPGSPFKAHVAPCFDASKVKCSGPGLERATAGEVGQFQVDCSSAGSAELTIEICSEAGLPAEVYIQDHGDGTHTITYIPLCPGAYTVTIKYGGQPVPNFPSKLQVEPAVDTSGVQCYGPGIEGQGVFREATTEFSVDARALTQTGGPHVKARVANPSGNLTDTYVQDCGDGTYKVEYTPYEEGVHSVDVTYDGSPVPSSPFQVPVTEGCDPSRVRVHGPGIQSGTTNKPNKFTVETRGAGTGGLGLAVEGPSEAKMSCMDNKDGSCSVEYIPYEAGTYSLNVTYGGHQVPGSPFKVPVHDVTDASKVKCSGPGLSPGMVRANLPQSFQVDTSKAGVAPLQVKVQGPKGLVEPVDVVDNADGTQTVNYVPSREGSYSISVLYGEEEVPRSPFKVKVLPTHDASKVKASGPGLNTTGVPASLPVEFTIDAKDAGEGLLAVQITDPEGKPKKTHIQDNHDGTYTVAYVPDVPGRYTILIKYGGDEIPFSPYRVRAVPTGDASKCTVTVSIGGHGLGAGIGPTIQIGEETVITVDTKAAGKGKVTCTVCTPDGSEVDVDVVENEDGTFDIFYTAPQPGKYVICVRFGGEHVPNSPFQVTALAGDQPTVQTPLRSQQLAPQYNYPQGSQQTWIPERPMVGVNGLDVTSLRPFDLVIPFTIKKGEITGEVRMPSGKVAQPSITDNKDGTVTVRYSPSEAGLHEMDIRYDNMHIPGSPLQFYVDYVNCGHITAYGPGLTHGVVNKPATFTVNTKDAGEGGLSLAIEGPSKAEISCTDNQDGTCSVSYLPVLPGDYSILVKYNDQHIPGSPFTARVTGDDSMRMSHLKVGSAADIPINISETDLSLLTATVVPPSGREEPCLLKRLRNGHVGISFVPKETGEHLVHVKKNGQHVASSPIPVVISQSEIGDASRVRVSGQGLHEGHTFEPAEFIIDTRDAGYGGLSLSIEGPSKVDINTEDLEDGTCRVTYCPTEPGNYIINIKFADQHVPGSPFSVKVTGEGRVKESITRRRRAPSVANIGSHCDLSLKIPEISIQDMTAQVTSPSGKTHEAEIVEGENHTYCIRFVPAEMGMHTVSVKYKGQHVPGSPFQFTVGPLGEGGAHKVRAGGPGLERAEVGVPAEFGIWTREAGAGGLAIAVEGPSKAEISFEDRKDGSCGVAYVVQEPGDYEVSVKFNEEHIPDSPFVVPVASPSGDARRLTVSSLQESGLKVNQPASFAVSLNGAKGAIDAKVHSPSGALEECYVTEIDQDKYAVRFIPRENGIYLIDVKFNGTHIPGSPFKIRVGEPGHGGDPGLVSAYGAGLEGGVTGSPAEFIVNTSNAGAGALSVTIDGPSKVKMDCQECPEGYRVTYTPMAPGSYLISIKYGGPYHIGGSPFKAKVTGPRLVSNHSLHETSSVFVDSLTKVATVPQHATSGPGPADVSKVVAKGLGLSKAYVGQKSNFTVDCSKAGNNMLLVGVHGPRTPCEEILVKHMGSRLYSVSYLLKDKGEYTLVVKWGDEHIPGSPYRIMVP

The target in experiment [1] is R-Ras bait lacking the CAAX-box (BTM116-R-Ras-CAAX-) (human) (UniProt P10301). In words: two-hybrid; bait in pBTM116 in yeast strain L40, prey from a mouse embryo cDNA library in pVP16; growth on selective plates and β-gal filter-lift assay.
For experiment [2], the target named is GST-FLNa repeats 1-10 (human) (UniProt P21333). The experiment in a line: pull-down; GST fusion proteins of FLNa fragments incubated with M2 (FLNa-) cell total lysates; bound R-Ras detected by Western blotting; only the target purified.
In experiment [3] the target is His-tagged FLNaΔ3 (deletion of FLNa repeat 3) (UniProt P21333). In words: co-IP; M2 cells co-transfected, lysed 48 h post transfection, immunoprecipitated with anti-His conjugated IgG beads or IgG beads alone, immunoblotted with anti-R-Ras antibody.

Numbering of substitutions follows the chain as printed. In names and notes the source's numbering stands. These are yes or no findings as the source states them, for the method shown. For part of these data: Binding can be weak; no strength is given. For part of these data: Binding seen in cells or lysates may run through a third protein.

With “VP16-FLNa (nucleotides 1699-1995) (from UniProt Q8BTM8) (domain or fragment)”, in experiment [1], the binding result is on record as “binds”.

B1: R-Ras in M2 (FLNa-) cell total lysate (protein, UniProt P10301 1-218)
chain: MSSGAASGTGRGRPRGGGPGPGDPPPSETHKLVVVGGGGVGKSALTIQFIQSYFVSDYDPTIEDSYTKICSVDGIPARLDILDTAGQEEFGAMREQYMRAGHGFLLVFAINDRQSFNEVGKLFTQILRVKDRDDFPVVLVGNKADLESQRQVPRSEASAFGASHHVAYFEASAKLRLNVDEAFEQLVRAVRKYQEQELPPSPPSAPRKKGGGCPCVLL
In the case of B1, the binding result in experiment [2] is “binds”.

B2: active R-Ras G38V (protein, UniProt P10301 1-218)
chain: B1 chain with G38V
As for B2, the binding result in experiment [3] is listed as “no binding”.
